PubChem BioAssay AID743121, NCATS | 2013

- Screen: 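Genes whose silencing strengthens cell killing by camptothecin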 (primary screen)
- Cells: MDA-MB-231 cells, a human breast cancer line
- Reagents: single siRNA against human genes, 20 nM siRNA (0.8 pmol per well)
- Time to read-out: 120 h (drug added 48 h after transfection, read 72 h later)
- Treatment: camptothecin 20 nM (about EC30) for 72 h; vehicle 0.1% DMSO in parallel plates
- Measurement: 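CellTiter-Glo ATP signal, scaled to control siRNA as percent viability; sensitisation given as log2 of untreated divided by camptothecin-treated viability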
- Direction: log2 vehicle/camptothecin viability: higher = stronger sensitisation to camptothecin
- Call rule: 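Each gene scored by redundant siRNA activity (RSA) over its individual siRNA ratios; a gene is called active at p < 0.001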
The whole screen tested about 26,000 reagents; this is an unselected part. 167 of them (0.63%) were called active. 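Calls are per gene from RSA p-values that are not deposited; an individual active-marked siRNA can sensitise only weakly.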 A number with no mark means an inactive call. The numbers tell different reagents against one gene apart. Further read-outs or replicates are left out here. No sequences are given here.

no.	gene	siRNA no.	log2 vehicle/camptothecin viability
1	DNAJC13 (GeneID 23317)	1	-0.199
2	DNAJC13 (GeneID 23317)	2	-0.18
3	DNAJC13 (GeneID 23317)	3	-0.28
4	DNAJC13 (GeneID 23317)	4	-0.0128
5	JADE2 (GeneID 23338)	1	-0.155
6	JADE2 (GeneID 23338)	2	-0.049
7	JADE2 (GeneID 23338)	3	0.59
8	UBE2T (GeneID 29089)	1	-0.0128
9	UBE2T (GeneID 29089)	2	-0.389
10	UBE2T (GeneID 29089)	3	0.101
11	UBE2T (GeneID 29089)	4	-0.0967
12	FBXO24 (GeneID 26261)	1	-0.384
13	FBXO24 (GeneID 26261)	2	-0.362
14	FBXO24 (GeneID 26261)	3	-0.000819
15	FBXO24 (GeneID 26261)	4	0.0103
16	OCRL (GeneID 4952)	1	-0.61
17	OCRL (GeneID 4952)	2	-0.346
18	OCRL (GeneID 4952)	3	-0.14
19	PMCH (GeneID 5367)	1	0.00085
20	PMCH (GeneID 5367)	2	0.0572
21	PMCH (GeneID 5367)	3	-0.351
22	PMCH (GeneID 5367)	4	-0.147
23	NOL6 (GeneID 65083)	1	-0.497
24	NOL6 (GeneID 65083)	2	-0.442
25	NOL6 (GeneID 65083)	3	-0.314
26	NOL6 (GeneID 65083)	4	-0.71
27	RFPL3 (GeneID 10738)	1	-0.192
28	RFPL3 (GeneID 10738)	2	-0.445
29	RFPL3 (GeneID 10738)	3	0.0756
30	RFPL3 (GeneID 10738)	4	0.0433
31	PTPN6 (GeneID 5777)	1	-0.232
32	PTPN6 (GeneID 5777)	2	-0.31
33	PTPN6 (GeneID 5777)	3	0.0297
34	PTPN6 (GeneID 5777)	4	0.017
35	OLIG2 (GeneID 10215)	1	-0.194
36	OLIG2 (GeneID 10215)	2	-0.219
37	OLIG2 (GeneID 10215)	3	-0.195

5 entries from above, arranged by “log2 vehicle/camptothecin viability”, low to high.
gene	siRNA no.	log2 vehicle/camptothecin viability
FBXO24 (GeneID 26261)	1	-0.384
FBXO24 (GeneID 26261)	2	-0.362
UBE2T (GeneID 29089)	4	-0.0967
FBXO24 (GeneID 26261)	3	-0.000819
FBXO24 (GeneID 26261)	4	0.0103

The listing continues:
no.	gene	siRNA no.	log2 vehicle/camptothecin viability
38	MRGPRD (GeneID 116512)	1	-0.495
39	MRGPRD (GeneID 116512)	2	-0.613
40	MRGPRD (GeneID 116512)	3	-0.198
41	MRGPRD (GeneID 116512)	4	-0.303
42	GUSB (GeneID 2990)	1	-0.0684
43	GUSB (GeneID 2990)	2	0.405
44	GUSB (GeneID 2990)	3	-0.116
45	GUSB (GeneID 2990)	4	0.85
46	GPX3 (GeneID 2878)	1	-0.249
47	GPX3 (GeneID 2878)	2	-0.0925
48	GPX3 (GeneID 2878)	3	0.557
49	GPX3 (GeneID 2878)	4	-0.423
50	SCN4A (GeneID 6329)	1	-0.409
51	SCN4A (GeneID 6329)	2	-0.136
52	SCN4A (GeneID 6329)	3	-0.332
53	SCN4A (GeneID 6329)	4	-0.0792
54	PLAAT4 (GeneID 5920)	1	-0.291
55	PLAAT4 (GeneID 5920)	2	-0.245
56	PLAAT4 (GeneID 5920)	3	-0.0313
57	PLAAT4 (GeneID 5920)	4	-0.323
58	SLC6A9 (GeneID 6536)	1	-0.361
59	SLC6A9 (GeneID 6536)	2	-0.171
60	SLC6A9 (GeneID 6536)	3	0.332
61	SLC6A9 (GeneID 6536)	4	0.23
62	NEB (GeneID 4703)	1	-0.111
63	NEB (GeneID 4703)	2	-0.0899
64	NEB (GeneID 4703)	3	-0.0498
65	NEB (GeneID 4703)	4	-0.447
66	INF2 (GeneID 64423)	1	1.24
67	INF2 (GeneID 64423)	2	-0.366
68	INF2 (GeneID 64423)	3	-0.58
69	INF2 (GeneID 64423)	4	-0.341
70	INF2 (GeneID 64423)	5	0.719
71	INF2 (GeneID 64423)	6	-0.209
72	INF2 (GeneID 64423)	7	0.0165
73	INF2 (GeneID 64423)	8	-0.202
